These results are taken from PubChem BioAssay AID248 (DTP/NCI, 2004).

The assay concerns L1210 leukemia ip in BDF1 mice, survival T/C. The assay can be described thus: NCI In Vivo Anticancer Drug Screen. Data for tumor model L1210 Leukemia (intraperitoneal) in B6D2F1 (BDF1) mice. The settings on record: higher T/C = longer survival.
Where [1] appears, read: T/C endpoint: mean survival time, dose: 400.0 mg/kg/injection, schedule: Q01DX001 (ip), vehicle: saline.
[2] abbreviates: T/C endpoint: mean survival time, dose: 400.0 mg/kg/injection, schedule: Q01DX009 (ip), vehicle: saline.
The mark [3] stands for this setting: T/C endpoint: mean survival time, dose: 300.0 mg/kg/injection, schedule: Q01DX001 (ip), vehicle: saline.
The mark [4] stands for this setting: T/C endpoint: mean survival time, dose: 400.0 mg/kg/injection, schedule: Q04DX003 (ip), vehicle: saline with Tween-80.
Setting [5] is: T/C endpoint: mean survival time, dose: 100.0 mg/kg/injection, schedule: Q04DX002 (ip), vehicle: gum acacia.
[6] abbreviates: T/C endpoint: mean survival time, dose: 100.0 mg/kg/injection, schedule: Q04DX003 (ip), vehicle: saline with Tween-80.

The list shows only some results of the screen, not a fair sample: it is rich in T/C values a quarter to a half above the control, in often repeated tests (any T/C) and in doses without a T/C. Further doses and runs are listed elsewhere. T/C is the treated group as % of the vehicle group. Some doses have a count of surviving animals in place of a T/C: the source files T/C as zero there, which appears to mark a toxic dose or a test without result, not a measured value. Some doses without a T/C left all or most animals alive at the check, yet need not have been tolerated: the source hardly ever lists a survival T/C far under the control, and the zero likely stands for such cases as well. Counts of survivors are from the toxicity check (mostly the fifth day) where no day follows; animals may have died later. Schedule codes are those of the source, read here as Q, the interval in days (D) or hours (H), X, the number of doses. Some schedules carry Z or #; the key to these is not given. Where survival is the endpoint, the PubChem record calls one and a half times the control and up active, and a quarter to a half above the control has no call in these data; cut-offs in other NCI protocols can differ. Some T/C values carry the count of animals alive at the toxicity check (mostly the fifth day); where none is given, no animal had died by that day.

Regarding `CC(C)n1c2c([n+](C)c1/C=C/c1ccccc1)C(=O)c1ccccc1C2=O`, the survivor count runs as follows: (T/C endpoint: mean survival time, dose: 4.0 mg/kg/injection, schedule: Q01DX009 (ip), vehicle: Klucel (hydroxypropylcellulose) (HPC)) 1 of 6; (T/C endpoint: mean survival time, dose: 8.0 mg/kg/injection, schedule: Q04DX003 (ip), vehicle: Klucel (hydroxypropylcellulose) (HPC)) 0 of 6; (T/C endpoint: mean survival time, dose: 10.0 mg/kg/injection, schedule: Q01DX001 (ip), vehicle: saline) 1 of 4; (T/C endpoint: mean survival time, dose: 20.0 mg/kg/injection, schedule: Q01DX001 (ip), vehicle: saline) 0 of 4; (T/C endpoint: mean survival time, dose: 40.0 mg/kg/injection, schedule: Q01DX001 (ip), vehicle: saline) 0 of 4; (T/C endpoint: mean survival time, dose: 50.0 mg/kg/injection, schedule: Q01DX001 (ip), vehicle: saline) 1 of 4. The survivor count is, setting by setting: (T/C endpoint: mean survival time, dose: 80.0 mg/kg/injection, schedule: Q01DX001 (ip), vehicle: saline) 0 of 4; (T/C endpoint: mean survival time, dose: 100.0 mg/kg/injection, schedule: Q01DX001 (ip), vehicle: saline) 1 of 4; (T/C endpoint: mean survival time, dose: 200.0 mg/kg/injection, schedule: Q01DX001 (ip), vehicle: saline) 0 of 4; under setting [1], 0 of 4.

For `O=C[C@@H](CO)O[C@H](C=O)n1cnc2c(=O)[nH]cnc21`, the T/C was 126 % of control (T/C endpoint: mean survival time, dose: 35.0 mg/kg/injection, schedule: Q01DX009 (ip), vehicle: saline); 143 % of control (T/C endpoint: mean survival time, dose: 70.0 mg/kg/injection, schedule: Q01DX009 (ip), vehicle: saline); 145 % of control (T/C endpoint: mean survival time, dose: 70.0 mg/kg/injection, schedule: Q01DX Z (ip), vehicle: water); 141 % of control (T/C endpoint: mean survival time, dose: 80.0 mg/kg/injection, schedule: Q01DX009 (ip), vehicle: saline); 137 % of control (T/C endpoint: mean survival time, dose: 270.0 mg/kg/injection, schedule: Q01DX009 (ip), vehicle: saline); 144 % of control (T/C endpoint: median survival time, dose: 39.0 mg/kg/injection, schedule: Q01DX009 (ip), vehicle: water). Also, for the setting “T/C endpoint: median survival time, dose: 65.0 mg/kg/injection, schedule: Q01DX009 (ip), vehicle: water”, the T/C is 144 % of control. For the same compound, the survivor count reads like this: (T/C endpoint: mean survival time, dose: 280.0 mg/kg/injection, schedule: Q01DX009 (ip), vehicle: saline) 3 of 6; (T/C endpoint: median survival time, dose: 300.0 mg/kg/injection, schedule: Q01DX009 (ip), vehicle: water) 3 of 8.

For `O=C(c1ccccc1)N1CCCCC1`, the survivor count under setting [2] is listed as 3 of 6 and the survivor count (T/C endpoint: mean survival time, dose: 400.0 mg/kg/injection, schedule: Q04DX003 (ip), vehicle: saline) was 3 of 6.

Regarding `C=CCNC(=O)c1ccccc1`, the survivor count is reported as 3 of 3 (T/C endpoint: mean survival time, dose: 200.0 mg/kg/injection, schedule: Q04DX002 (ip), vehicle: saline with Tween-80) and 0 of 3 (T/C endpoint: mean survival time, dose: 400.0 mg/kg/injection, schedule: Q04DX002 (ip), vehicle: saline with Tween-80).

`Cc1cc(CCN)c(C)c2c1sc1ccccc12`: the survivor count is on record as 0 of 6 (T/C endpoint: mean survival time, dose: 150.0 mg/kg/injection, schedule: Q01DX001 (ip), vehicle: saline) and 0 of 6 under setting [3].

As for `COC(C(C)C)[CH]1[Hg][O]C1=O` (stereo not drawn), the survivor count is recorded as 3 of 6 (T/C endpoint: mean survival time, dose: 5.0 mg/kg/injection, schedule: Q01DX001 (ip), vehicle: steroid suspending solution); 0 of 6 (T/C endpoint: mean survival time, dose: 10.0 mg/kg/injection, schedule: Q01DX001 (ip), vehicle: steroid suspending solution); 1 of 6 (T/C endpoint: mean survival time, dose: 20.0 mg/kg/injection, schedule: Q01DX001 (ip), vehicle: steroid suspending solution); 1 of 6 (T/C endpoint: mean survival time, dose: 40.0 mg/kg/injection, schedule: Q01DX001 (ip), vehicle: steroid suspending solution); 1 of 6 (T/C endpoint: mean survival time, dose: 80.0 mg/kg/injection, schedule: Q01DX001 (ip), vehicle: steroid suspending solution); 0 of 4 (T/C endpoint: mean survival time, dose: 100.0 mg/kg/injection, schedule: Q01DX001 (ip), vehicle: steroid suspending solution). Further, the survivor count runs as follows: (T/C endpoint: mean survival time, dose: 200.0 mg/kg/injection, schedule: Q01DX001 (ip), vehicle: steroid suspending solution) 0 of 4; (T/C endpoint: mean survival time, dose: 400.0 mg/kg/injection, schedule: Q01DX001 (ip), vehicle: steroid suspending solution) 0 of 4.

Take `O=C(/C=C/c1ccc(Cl)c(Cl)c1)c1ccc(Cl)cc1`: the survivor count by setting is: (T/C endpoint: mean survival time, dose: 50.0 mg/kg/injection, schedule: Q04DX003 (ip), vehicle: saline with Tween-80) 6 of 6; (T/C endpoint: mean survival time, dose: 200.0 mg/kg/injection, schedule: Q04DX003 (ip), vehicle: saline with Tween-80) 6 of 6; under setting [4], 6 of 6.

For `CCN(CC)C1=C(Cl)C(=O)C(N(CC)CC)=C(Cl)C1=O`, the survivor count under setting [5] is listed as 3 of 3.

Regarding `CC(C)c1ccc2c(c1)CCC1C2CCCC1(C)NCc1ccccc1` (stereo not drawn), the survivor count is on record as 3 of 6 (T/C endpoint: mean survival time, dose: 83.0 mg/kg/injection, schedule: Q01DX Z (ip), vehicle: methylcellulose (MC)); 1 of 6 (T/C endpoint: mean survival time, dose: 125.0 mg/kg/injection, schedule: Q01DX Z (ip), vehicle: methylcellulose (MC)); 0 of 6 (T/C endpoint: mean survival time, dose: 187.0 mg/kg/injection, schedule: Q01DX Z (ip), vehicle: methylcellulose (MC)).

For `CCCCOC1NC(=O)NC(=O)C1=[N+]=[N-]` (stereo not drawn), under setting [6], the T/C is 128 % of control. Moreover, the survivor count reads like this: under setting [6], 1 of 6; (T/C endpoint: mean survival time, dose: 150.0 mg/kg/injection, schedule: Q04DX003 (ip), vehicle: saline with Tween-80) 0 of 6; under setting [4], 0 of 6.

Take `NC1C2C3C=CC(C3)C12` (stereo not drawn): under setting [2], the survivor count is 0 of 6.

Turning to `CN1CC2(Cc3ccccc3)c3ccccc3NC2(NC(=O)CCl)C1=O` (stereo not drawn), the survivor count was 3 of 3 (T/C endpoint: mean survival time, dose: 12.5 mg/kg/injection, schedule: Q04DX002 (ip), vehicle: saline with Tween-80); 3 of 3 (T/C endpoint: mean survival time, dose: 25.0 mg/kg/injection, schedule: Q04DX002 (ip), vehicle: saline with Tween-80); 3 of 3 (T/C endpoint: mean survival time, dose: 50.0 mg/kg/injection, schedule: Q04DX002 (ip), vehicle: saline with Tween-80).

With `CC(C)=CCCC/C=N/NC(N)=O`, the survivor count (T/C endpoint: mean survival time, dose: 300.0 mg/kg/injection, schedule: Q01DX001 (ip), vehicle: acetone) was 0 of 6.

`CCOC(=O)CNc1ccc(C)c(F)c1`: the survivor count is 2 of 3 (T/C endpoint: mean survival time, dose: 200.0 mg/kg/injection, schedule: Q04DX002 (ip), vehicle: Klucel (hydroxypropylcellulose) (HPC)) and 0 of 3 (T/C endpoint: mean survival time, dose: 400.0 mg/kg/injection, schedule: Q04DX002 (ip), vehicle: Klucel (hydroxypropylcellulose) (HPC)).

For the compound `CCNC(=S)Nc1cccc(C)c1`, the T/C runs as follows: under setting [5], 129 % of control; (T/C endpoint: mean survival time, dose: 200.0 mg/kg/injection, schedule: Q04DX002 (ip), vehicle: gum acacia) 126 % of control [2 of 3 alive]. Moreover, the survivor count (T/C endpoint: mean survival time, dose: 400.0 mg/kg/injection, schedule: Q04DX002 (ip), vehicle: gum acacia) is 0 of 3.

Take `CCOP(=O)(OCC)OCCSCC`: the survivor count under setting [3] is given as 2 of 6.

With `COc1cc(NCCCNc2c3ccc(Cl)cc3nc3ccc(OC)cc23)c2ncccc2c1`, the survivor count (T/C endpoint: mean survival time, dose: 200.0 mg/kg/injection, schedule: Q01DX009 (ip), vehicle: Klucel (hydroxypropylcellulose) (HPC)) is on record as 4 of 6 and the survivor count (T/C endpoint: mean survival time, dose: 400.0 mg/kg/injection, schedule: Q01DX009 (ip), vehicle: Klucel (hydroxypropylcellulose) (HPC)) was 0 of 6.

In the case of `O=C(O)c1ccc(/C=N/NC(=O)c2cccc3ccccc23)cc1`, the survivor count under setting [1] is recorded as 3 of 4.

Consider `CC(C)=CC(=O)OC1C2C(C)C(=O)OC2C(O)C(C)C2C=CC(=O)C21C` (stereo not drawn), for which the survivor count is recorded as 3 of 6 (T/C endpoint: mean survival time, dose: 100.0 mg/kg/injection, schedule: Q01DX009 (ip), vehicle: Klucel (hydroxypropylcellulose) (HPC)) and 1 of 6 (T/C endpoint: mean survival time, dose: 100.0 mg/kg/injection, schedule: Q01DX009 (ip), vehicle: saline).

With `c1ccc(C(=C2CCC2)c2c3ccccc3cc3ccccc23)cc1`, the survivor count (T/C endpoint: mean survival time, dose: 300.0 mg/kg/injection, schedule: Q01DX001 (ip), vehicle: Klucel (hydroxypropylcellulose) (HPC)) is 6 of 6.

Turning to `CCC1(/C=C/C(C)C)C(=O)NC(=O)NC1=O`, the survivor count under setting [3] was 1 of 6.

As to `COc1ccc(/C(C#N)=C2C=C(Cl)/C(=N/O)C=C/2Cl)cc1`, the survivor count (T/C endpoint: mean survival time, dose: 400.0 mg/kg/injection, schedule: Q01DX009 (ip), vehicle: saline with Tween-80) is recorded as 0 of 6.
